Source: patent US20090142377A1
Results are given in words; binding and its absence hold for the method and conditions named. Some binding calls cover weakened binding; strength is not graded here.

By UniProt entry, the sequences of proteins in these tests, tags left out. Residues count along the entry.
UniProt P21530, residues 690-1030: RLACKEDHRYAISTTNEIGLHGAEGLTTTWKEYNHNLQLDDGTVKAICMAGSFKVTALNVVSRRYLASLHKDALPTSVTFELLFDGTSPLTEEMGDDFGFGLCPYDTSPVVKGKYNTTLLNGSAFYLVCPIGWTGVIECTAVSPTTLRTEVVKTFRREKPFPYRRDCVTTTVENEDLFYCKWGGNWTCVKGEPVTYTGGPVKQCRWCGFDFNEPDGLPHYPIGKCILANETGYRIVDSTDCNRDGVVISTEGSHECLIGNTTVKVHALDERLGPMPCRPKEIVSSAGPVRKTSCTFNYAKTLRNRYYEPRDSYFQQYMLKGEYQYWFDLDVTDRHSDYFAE
UniProt P00750, residues 36-562: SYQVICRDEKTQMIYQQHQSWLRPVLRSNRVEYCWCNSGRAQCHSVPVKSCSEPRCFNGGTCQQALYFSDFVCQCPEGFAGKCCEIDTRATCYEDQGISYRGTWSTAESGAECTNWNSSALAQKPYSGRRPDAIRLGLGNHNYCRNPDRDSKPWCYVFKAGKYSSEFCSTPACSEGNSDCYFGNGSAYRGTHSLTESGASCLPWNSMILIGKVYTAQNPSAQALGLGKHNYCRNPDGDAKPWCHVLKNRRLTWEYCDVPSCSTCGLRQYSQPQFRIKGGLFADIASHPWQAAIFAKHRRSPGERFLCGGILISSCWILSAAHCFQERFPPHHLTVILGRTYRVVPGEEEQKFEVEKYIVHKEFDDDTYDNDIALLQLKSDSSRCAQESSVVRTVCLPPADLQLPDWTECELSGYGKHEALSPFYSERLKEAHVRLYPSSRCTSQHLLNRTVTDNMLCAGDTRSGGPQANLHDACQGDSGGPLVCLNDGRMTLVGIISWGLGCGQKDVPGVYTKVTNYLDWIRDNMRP
UniProt P02751, residues 183-275: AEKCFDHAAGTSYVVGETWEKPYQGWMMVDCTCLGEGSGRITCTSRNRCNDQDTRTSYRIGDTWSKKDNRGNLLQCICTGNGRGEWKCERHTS

Tests used:
[1] = target: cE2-A (SEC-E2 heat-cycled three times 25 to 85 C) (Classical Swine Fever Virus) (UniProt P21530); test: ELISA, coated E2 form, tPA series with eACA
[2] = target: cE2-B (SEC-E2 heated for 1 h at 95 C) (Classical Swine Fever Virus) (UniProt P21530); test: ELISA, coated E2 form, tPA series with eACA
[3] = target: cE2-A (SEC-E2 heat-cycled three times 25 to 85 C) (Classical Swine Fever Virus) (UniProt P21530); test: ELISA, coated E2 form, Fn F4-5 series, anti-FLAG-HRP detection
[4] = target: cE2-B (SEC-E2 heated for 1 h at 95 C) (Classical Swine Fever Virus) (UniProt P21530); test: as above

Substance	binding [1]	binding [2]	binding [3]	binding [4]
tissue type plasminogen activator (tPA; Actilyse, Boehringer-Ingelheim) (from UniProt P00750 36-562) (enzyme)	binds	binds		
fourth and fifth finger domain of fibronectin (Fn F4-5), with C-terminal FLAG-tag (from UniProt P02751 183-275)			binds	binds
